Source: the supplement of paper PMC11006884
Only a part is listed here, and it is no random draw.

By UniProt entry, the sequences of proteins in these tests, tags left out. Where a name states a change or a piece, a line headed by the entry shows the natural chain unless it says otherwise.
UniProt Q93008, whole entry, looked up: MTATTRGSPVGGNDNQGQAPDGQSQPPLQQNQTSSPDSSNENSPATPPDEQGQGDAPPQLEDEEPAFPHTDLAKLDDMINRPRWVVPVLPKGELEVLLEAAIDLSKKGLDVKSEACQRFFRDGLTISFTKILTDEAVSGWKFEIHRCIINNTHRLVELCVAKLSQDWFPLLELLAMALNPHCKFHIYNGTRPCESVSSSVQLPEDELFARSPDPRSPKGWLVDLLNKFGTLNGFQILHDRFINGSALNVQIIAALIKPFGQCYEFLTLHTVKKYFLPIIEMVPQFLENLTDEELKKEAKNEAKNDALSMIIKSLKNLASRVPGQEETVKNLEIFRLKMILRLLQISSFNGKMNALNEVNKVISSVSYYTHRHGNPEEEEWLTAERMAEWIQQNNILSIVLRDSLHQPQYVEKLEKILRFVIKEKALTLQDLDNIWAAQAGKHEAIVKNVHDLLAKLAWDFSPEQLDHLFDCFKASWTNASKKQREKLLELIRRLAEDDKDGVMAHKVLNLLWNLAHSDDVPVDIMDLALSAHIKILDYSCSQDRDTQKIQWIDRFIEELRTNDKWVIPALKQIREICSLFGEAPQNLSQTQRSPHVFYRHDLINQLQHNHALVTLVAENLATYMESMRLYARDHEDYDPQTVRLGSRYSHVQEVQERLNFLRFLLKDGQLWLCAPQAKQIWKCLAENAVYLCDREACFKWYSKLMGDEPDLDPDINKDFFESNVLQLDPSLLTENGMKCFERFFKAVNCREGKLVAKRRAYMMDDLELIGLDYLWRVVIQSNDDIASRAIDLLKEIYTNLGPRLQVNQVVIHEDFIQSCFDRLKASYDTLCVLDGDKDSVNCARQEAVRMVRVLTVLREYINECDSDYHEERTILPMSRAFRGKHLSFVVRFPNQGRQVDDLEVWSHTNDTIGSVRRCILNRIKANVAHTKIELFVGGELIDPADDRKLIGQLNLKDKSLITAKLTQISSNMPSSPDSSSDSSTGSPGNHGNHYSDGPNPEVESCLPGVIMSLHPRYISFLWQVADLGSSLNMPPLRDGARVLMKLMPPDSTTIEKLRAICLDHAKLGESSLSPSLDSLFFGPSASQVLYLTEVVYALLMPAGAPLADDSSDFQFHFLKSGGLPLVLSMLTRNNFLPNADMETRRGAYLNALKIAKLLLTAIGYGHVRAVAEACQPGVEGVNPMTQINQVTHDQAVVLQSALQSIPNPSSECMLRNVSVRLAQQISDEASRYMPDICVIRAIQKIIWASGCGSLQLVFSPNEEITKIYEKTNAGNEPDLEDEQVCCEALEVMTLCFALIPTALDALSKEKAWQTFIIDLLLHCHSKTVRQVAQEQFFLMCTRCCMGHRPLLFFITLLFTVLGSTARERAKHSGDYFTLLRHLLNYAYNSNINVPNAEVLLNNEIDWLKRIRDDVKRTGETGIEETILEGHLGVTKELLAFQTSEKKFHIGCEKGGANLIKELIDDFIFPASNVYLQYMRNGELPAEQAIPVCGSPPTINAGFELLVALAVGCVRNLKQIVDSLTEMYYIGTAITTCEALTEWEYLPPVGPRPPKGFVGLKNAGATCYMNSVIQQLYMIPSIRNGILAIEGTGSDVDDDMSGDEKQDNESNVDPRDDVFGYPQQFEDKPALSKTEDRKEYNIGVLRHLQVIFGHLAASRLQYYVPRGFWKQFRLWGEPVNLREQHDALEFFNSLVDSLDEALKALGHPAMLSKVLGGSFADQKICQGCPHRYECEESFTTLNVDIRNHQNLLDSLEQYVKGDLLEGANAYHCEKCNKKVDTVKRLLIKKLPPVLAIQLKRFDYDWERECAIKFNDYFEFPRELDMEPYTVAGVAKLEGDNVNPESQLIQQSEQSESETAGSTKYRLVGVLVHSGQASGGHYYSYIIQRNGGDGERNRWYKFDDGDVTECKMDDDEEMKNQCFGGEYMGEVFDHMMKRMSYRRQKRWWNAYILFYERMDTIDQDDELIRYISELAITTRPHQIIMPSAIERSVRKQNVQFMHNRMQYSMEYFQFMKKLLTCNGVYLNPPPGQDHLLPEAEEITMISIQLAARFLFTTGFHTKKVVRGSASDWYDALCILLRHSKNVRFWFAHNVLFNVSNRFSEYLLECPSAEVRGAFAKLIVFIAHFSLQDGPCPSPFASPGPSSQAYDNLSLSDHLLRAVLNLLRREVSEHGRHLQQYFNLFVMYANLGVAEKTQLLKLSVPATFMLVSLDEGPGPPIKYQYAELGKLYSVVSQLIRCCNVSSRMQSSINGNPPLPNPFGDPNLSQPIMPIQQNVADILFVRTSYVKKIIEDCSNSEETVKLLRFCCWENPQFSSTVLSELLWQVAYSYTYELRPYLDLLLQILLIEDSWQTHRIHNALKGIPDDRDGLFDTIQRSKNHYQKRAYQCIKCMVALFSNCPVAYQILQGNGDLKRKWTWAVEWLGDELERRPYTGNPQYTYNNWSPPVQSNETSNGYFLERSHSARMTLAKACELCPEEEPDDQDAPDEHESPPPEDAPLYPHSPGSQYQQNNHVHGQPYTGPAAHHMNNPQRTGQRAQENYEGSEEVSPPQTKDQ
UniProt Q969E8: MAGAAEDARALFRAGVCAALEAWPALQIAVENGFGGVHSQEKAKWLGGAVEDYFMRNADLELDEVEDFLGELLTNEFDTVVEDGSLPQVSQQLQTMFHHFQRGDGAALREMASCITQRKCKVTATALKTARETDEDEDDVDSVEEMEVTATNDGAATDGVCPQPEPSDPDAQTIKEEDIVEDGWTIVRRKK
UniProt Q92616, whole entry, looked up: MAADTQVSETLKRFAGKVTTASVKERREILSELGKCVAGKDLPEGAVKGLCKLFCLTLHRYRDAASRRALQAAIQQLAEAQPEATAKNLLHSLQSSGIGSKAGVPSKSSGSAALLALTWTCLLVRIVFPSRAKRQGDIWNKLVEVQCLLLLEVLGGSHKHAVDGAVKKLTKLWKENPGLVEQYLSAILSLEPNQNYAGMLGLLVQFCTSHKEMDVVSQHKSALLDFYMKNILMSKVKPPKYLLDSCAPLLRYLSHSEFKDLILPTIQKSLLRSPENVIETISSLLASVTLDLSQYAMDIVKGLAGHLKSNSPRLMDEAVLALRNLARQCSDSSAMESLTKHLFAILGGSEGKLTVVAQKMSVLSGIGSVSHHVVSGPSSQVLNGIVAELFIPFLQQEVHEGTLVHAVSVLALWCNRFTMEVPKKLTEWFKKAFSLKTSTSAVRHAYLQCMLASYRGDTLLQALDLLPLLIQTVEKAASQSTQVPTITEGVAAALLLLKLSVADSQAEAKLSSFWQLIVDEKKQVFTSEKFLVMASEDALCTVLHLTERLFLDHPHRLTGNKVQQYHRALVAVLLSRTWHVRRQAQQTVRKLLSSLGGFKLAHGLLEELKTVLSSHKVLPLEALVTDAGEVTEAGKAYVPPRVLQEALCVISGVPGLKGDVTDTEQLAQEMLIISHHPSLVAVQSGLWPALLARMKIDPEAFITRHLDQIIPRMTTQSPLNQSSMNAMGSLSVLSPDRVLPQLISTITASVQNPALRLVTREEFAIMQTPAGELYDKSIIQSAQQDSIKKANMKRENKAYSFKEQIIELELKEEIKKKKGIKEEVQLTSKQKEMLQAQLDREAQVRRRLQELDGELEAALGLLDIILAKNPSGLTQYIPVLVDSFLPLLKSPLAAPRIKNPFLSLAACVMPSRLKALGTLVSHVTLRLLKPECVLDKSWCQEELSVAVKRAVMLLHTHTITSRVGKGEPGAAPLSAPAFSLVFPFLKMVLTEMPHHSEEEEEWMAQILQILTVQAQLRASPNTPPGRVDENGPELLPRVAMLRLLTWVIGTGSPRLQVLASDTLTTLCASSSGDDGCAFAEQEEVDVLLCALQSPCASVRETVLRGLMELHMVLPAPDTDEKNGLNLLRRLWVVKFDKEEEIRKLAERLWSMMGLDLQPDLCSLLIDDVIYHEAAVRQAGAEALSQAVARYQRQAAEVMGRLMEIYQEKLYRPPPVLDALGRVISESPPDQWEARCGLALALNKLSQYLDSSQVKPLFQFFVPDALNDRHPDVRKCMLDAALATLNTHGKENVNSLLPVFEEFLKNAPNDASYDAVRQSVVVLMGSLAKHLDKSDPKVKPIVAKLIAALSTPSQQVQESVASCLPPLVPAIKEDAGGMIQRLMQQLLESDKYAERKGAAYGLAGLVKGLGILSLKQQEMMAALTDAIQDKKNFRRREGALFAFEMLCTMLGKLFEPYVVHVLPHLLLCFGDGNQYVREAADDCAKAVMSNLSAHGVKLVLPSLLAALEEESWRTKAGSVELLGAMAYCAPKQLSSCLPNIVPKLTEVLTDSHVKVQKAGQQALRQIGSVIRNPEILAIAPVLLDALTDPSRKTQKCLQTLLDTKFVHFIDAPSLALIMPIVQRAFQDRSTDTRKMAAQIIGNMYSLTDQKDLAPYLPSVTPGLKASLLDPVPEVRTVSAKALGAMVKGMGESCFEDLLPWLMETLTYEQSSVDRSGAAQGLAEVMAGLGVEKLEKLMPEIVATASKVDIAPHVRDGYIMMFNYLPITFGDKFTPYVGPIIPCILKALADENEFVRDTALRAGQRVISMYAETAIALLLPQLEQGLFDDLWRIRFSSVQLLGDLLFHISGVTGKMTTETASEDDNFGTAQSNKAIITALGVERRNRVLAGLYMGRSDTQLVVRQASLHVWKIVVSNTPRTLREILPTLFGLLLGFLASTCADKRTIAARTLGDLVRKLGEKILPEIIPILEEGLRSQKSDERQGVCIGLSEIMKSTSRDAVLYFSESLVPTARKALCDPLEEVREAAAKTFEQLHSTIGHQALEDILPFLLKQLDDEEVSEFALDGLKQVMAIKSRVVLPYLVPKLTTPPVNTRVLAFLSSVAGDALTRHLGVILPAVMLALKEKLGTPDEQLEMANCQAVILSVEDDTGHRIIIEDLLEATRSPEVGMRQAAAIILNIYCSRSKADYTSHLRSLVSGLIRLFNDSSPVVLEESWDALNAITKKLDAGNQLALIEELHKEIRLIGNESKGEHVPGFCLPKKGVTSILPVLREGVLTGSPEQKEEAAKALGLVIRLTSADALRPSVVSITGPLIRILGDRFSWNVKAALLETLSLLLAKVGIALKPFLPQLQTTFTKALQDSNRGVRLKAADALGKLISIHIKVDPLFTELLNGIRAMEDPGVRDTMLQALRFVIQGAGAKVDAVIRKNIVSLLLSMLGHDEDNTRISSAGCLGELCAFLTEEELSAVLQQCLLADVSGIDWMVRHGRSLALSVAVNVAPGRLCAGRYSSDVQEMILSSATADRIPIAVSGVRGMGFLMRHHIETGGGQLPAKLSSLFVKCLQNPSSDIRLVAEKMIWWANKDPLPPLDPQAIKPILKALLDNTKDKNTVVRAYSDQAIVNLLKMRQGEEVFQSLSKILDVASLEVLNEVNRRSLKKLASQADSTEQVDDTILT
UniProt Q92990: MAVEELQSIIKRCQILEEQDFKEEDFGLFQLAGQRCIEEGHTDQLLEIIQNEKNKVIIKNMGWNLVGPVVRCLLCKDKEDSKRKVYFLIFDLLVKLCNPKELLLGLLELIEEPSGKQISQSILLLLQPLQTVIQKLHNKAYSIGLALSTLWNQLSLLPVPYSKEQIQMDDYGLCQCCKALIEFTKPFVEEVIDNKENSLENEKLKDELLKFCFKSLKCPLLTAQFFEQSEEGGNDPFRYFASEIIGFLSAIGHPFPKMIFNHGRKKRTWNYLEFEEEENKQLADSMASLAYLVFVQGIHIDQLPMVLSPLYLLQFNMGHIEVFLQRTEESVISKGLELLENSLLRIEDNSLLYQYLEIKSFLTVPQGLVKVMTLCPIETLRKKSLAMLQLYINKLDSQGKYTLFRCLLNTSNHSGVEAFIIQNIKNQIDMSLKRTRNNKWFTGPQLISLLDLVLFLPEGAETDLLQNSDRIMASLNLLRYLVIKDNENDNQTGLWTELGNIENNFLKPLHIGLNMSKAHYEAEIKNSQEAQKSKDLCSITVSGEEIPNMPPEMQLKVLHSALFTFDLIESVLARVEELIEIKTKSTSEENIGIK
UniProt Q92599: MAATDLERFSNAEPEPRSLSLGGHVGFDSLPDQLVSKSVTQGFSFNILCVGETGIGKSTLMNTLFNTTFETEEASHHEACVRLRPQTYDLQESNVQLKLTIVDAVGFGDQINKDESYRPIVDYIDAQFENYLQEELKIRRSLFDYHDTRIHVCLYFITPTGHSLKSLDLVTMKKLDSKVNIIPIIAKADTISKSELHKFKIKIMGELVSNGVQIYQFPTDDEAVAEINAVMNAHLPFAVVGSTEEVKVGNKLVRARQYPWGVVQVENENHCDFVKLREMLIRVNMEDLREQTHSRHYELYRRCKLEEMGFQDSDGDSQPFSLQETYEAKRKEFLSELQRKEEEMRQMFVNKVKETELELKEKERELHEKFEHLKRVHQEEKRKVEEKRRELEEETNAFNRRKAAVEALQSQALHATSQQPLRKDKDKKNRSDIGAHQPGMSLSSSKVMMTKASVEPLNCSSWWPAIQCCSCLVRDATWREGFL

compound: COC(=O)C#Cc1ccccc1 [methyl 3-phenylpropiolate]; assay: log2 ratio of iodoacetamide-alkyne labeling of the cysteine site, DMSO over compound (competition); higher = stronger covalent engagement of the cysteine by the compound, active = 1 or more; conditions: 500 µM; treatment time 1 h; system: HEK293T cell lysate
How it was run: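 HEK293T lysate at 2 mg/mL was treated with vehicle or electrophile (500 µM) for 1 h at ambient temperature, then labelled with iodoacetamide alkyne (1 h), clicked to sCIP-TMT reagents, pooled, digested with trypsin overnight at 37 °C, enriched on streptavidin and eluted with acid. Peptides were analysed by Orbitrap Eclipse LC-MS/MS with FAIMS and quantified in FragPipe, using duplicate channels and three replicates, with cysteines quantified in only one replicate excluded. The log2 competition ratio for each cysteine is the mean control-channel reporter intensity divided by the mean compound-channel reporter intensity.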

Row | Target | log2 ratio of iodoacetamide-alkyne labeling
1 | USP9X C842 (UniProt Q93008) | inactive: 0.417
2 | TSR2 C17 (UniProt Q969E8) | inactive: 0.599
3 | NDRG1 C289 (UniProt Q92597) | inactive: 0.326
4 | PYCR2 C95 (UniProt Q96C36) | inactive: 0.156
5 | TONSL C283 (UniProt Q96HA7) | inactive: 0.128
6 | ELP4 C361 (UniProt Q96EB1) | inactive: 0.228
7 | USP9X C2075 (UniProt Q93008) | inactive: 0.0811
8 | PYCR2 C262 (UniProt Q96C36) | inactive: 0.538
9 | ACD C406 (UniProt Q96AP0) | inactive: 0.713
10 | RAD50 C633 (UniProt Q92878) | inactive: 0.264
11 | SAAL1 C248 (UniProt Q96ER3) | inactive: 0.6
12 | AKT1S1 C61 (UniProt Q96B36) | inactive: 0.266
13 | UniProt Q96EM0_C39 | inactive: 0.492
14 | UniProt Q92616_C246 | inactive: 0.0435
15 | EDC3 C477 (UniProt Q96F86) | inactive: 0.0883
16 | RPL36AL C77 (UniProt Q969Q0) | inactive: -0.113
17 | GLMN C406 (UniProt Q92990) | inactive: -0.506
18 | MRRF C154 (UniProt Q96E11) | inactive: 0.108
19 | MED12 C1006 (UniProt Q93074) | inactive: 0.193
20 | UniProt Q92599_C80 | inactive: 0.199
21 | ZNF428 C115 (UniProt Q96B54) | inactive: 0.286
22 | MED12 C83 (UniProt Q93074) | inactive: 0.457

Looked up one by one from the entries so far, two records:
Row | Target | log2 ratio of iodoacetamide-alkyne labeling
1 | USP9X C842 (UniProt Q93008) | inactive: 0.417
18 | MRRF C154 (UniProt Q96E11) | inactive: 0.108
